PubChem BioAssay AID1224826 – NIAID, 2016

Test: 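Regulators of Tlr4 signalling leading to Tnf-alpha expression in macrophages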 (primary screen)
System: RAW264.7 G9 macrophages from mouse bearing reporters for p65 (GFP) and the Tnf promoter (mCherry)
Knock-down reagent: siRNA pool against mouse genes, 100 nM
Time to read-out: 16 h of LPS stimulation, after 2 days of siRNA transfection
Conditions: bacterial lipopolysaccharide (Salmonella minnesota R595), 10 ng/ml
Read-out: 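Imaged Tnf reporter mCherry in nuclei, minus background, normalised per plate to the median and expressed as robust z-scores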
Direction: Tnf reporter robust z-score: higher = stronger Tnf promoter reporter signal after LPS
Call rule: 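a well counts as active at a score of -1.3 or below (Tlr4 knock-down control median) or above 3 (raised signal); controls and wells holding fewer than 50 cells are excluded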
Calls: active = Tnf reporter clearly lowered or raised; inactive = no clear change in Tnf reporter
In all, the deposit lists about 17,000 reagents; shown is a random part of them. In the full data, about 1,110 (6.6%) were called active. 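Active means lowered or raised reporter signal; replicate intensities are raw and not normalised per plate.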 Unmarked entries are inactive. The numbers tell different reagents against one gene apart. Further read-outs or replicates are left out here.

gene	reagent	Tnf reporter robust z-score	fewer than 50 cells in well
Casp2	1	-0.68	enough cells in well
Zscan21	1	-1.47 (active)	enough cells in well
Ndufa9	1	-1.51 (active)	enough cells in well
Ostf1	1	-0.39	enough cells in well
Mro	1	2.31	enough cells in well
Tha1	1	0.5	enough cells in well
Proser2	1	-1.03	enough cells in well
Esrra	1	0.05	enough cells in well
Timcc	1		fewer than 50 cells per well; well left out of calls
Stt3a	1	-0.86	enough cells in well
Shq1	1	2.15	enough cells in well
Slc19a2	1	0.17	enough cells in well
Llgl2	1	1.43	enough cells in well
Zdhhc20	1	-0.53	enough cells in well
G6pdx	1	0.95	enough cells in well
Stxbp4	1	1.95	enough cells in well
Stxbp4	2	0.29	enough cells in well
Mmp1b	1	3.73 (active)	enough cells in well
Dnah5	1	-1.38 (active)	enough cells in well
Necap2	1		fewer than 50 cells per well; well left out of calls
Glt8d1	1		fewer than 50 cells per well; well left out of calls
Rnd3	1	0.8	enough cells in well
Afg3l1	1	0.68	enough cells in well
Sox1	1	0.81	enough cells in well

Part of the list above, set out differently:
{"gene": "Stxbp4", "reagent": 1, "Tnf reporter robust z-score": 1.95, "fewer than 50 cells in well": "enough cells in well"}
{"gene": "Stxbp4", "reagent": 2, "Tnf reporter robust z-score": 0.29, "fewer than 50 cells in well": "enough cells in well"}
